{
  "source": "paper PMC7858072",
  "system": "MBP-FhtR (apo) (Enterococcus faecalis OG1RF)",
  "test": "EMSA",
  "settings": "EMSA: 20 mM Tris-HCl pH 8, 50 mM KCl, 0.2 mM MgCl2, 1 mM EDTA, 0.2 mM DTT, 5% glycerol, 7% PAGE in TBE, GelRed, temperature not stated, recombinant protein, residues 1-201, protein details: N-terminal MBP (pMAL-c4X), probe letters rebuilt from the primers and the genome",
  "note": "Construct, isoform or probe ends are uncertain for at least one entry. The comparison behind a weaker result is the experiment's own reference, which may not be listed here.",
  "data": [
    {"sequence": "CCAGCGAAAAACAGTGGATGACGATGTCAAAAAATTTATTCAATTTATGCTACATGGCGTTTTGAAAAGTCACAAATAAAAAATAGAGAAGCCCTGTTGAAAAACAGACTTCTCTATTTTTTTGTGAAATTCACTTATCAATCGATAAATAATTATTGATTTATCGATTGATAAGTGATATAGTTTATTTCGAAAAGAAGAAAGAGGTGAACCATTCATGTTTTTAGGATTTAATGAAATGAAGTATTCAAAAGGACGGTACGTCCTTGTAGTCTTAGTAATGGTCTTGATTGCTTGGTTAATTTTTATTTTGTCAGGTTTAGCG (double strand) [PhrtBA WT]", "values": [
      {"measurement": "binding result", "setting": "hemin, intermediate amounts (0.1 and 1 uM), C1 and C2 both seen, 0.25 pmol DNA", "result": "binds more weakly"},
      {"measurement": "binding result", "setting": "no hemin, two complexes C1 and C2, 0.25 pmol …", "result": "binds"}
    ]}
  ]
}
